The list is a part of this screen's results and no random one: it is rich in T/C values a quarter to a half above the control, in often repeated tests (any T/C) and in doses without a T/C. Other doses and runs of a compound stand elsewhere. T/C gives the treated animals as a percentage of the vehicle group. Schedule codes are those of the source, taken here to give the interval after Q, in days (D) or hours (H), and the number of doses after X. Some doses have a count of surviving animals in place of a T/C: the source holds a T/C of zero for them, seemingly a mark for toxic or unscored doses. Survivors were counted at the toxicity check, usually on the fifth day, unless a day is given; later deaths do not show.
System: MX-1 breast xenograft, intrarenal, nude mice, tumor weight
Assay: NCI In Vivo Anticancer Drug Screen. Data for tumor model Human Mammary Carcinoma MX-1 Xenograft (intrarenal inoculation) in NU/NU BALB/C (nude) mice
Details: T/C endpoint: mean tumor weight change, higher T/C = larger tumour; for T/C: evaluated on day 11
Method in brief: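 Mice w/ transplanted tumors, drug vs vehicle; endpoint survival or tumor size; value = T/C.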

[1] = dose: 400.0 mg/kg/injection, schedule: Q04DX003 (ip), vehicle: saline with Tween-80
[2] = dose: 800.0 mg/kg/injection, schedule: Q04DX003 (ip), vehicle: saline with Tween-80
[3] = dose: 200.0 mg/kg/injection, schedule: Q04DX003 (ip), vehicle: saline with Tween-80

Compound: CN(CO)c1nc(N(C)CO)nc(N(C)CO)n1
- survivor count (dose: 50.0 mg/kg/injection, schedule: Q01DX010 (sc), vehicle: saline): 1 of 2 on day 11
- survivor count (dose: 200.0 mg/kg/injection, schedule: Q01DX010 (sc), vehicle: saline): 0 of 2 on day 11

Compound: CC(=O)CC(=O)CCC(=O)O
- T/C (dose: 600.0 mg/kg/injection, schedule: Q04DX003 (sc), vehicle: saline): 140 % of control
- survivor count (dose: 2400.0 mg/kg/injection, schedule: Q04DX003 (sc), vehicle: saline): 1 of 6 on day 11

Compound: COc1ccc2oc3c(ccc[n+]3C)c(=O)c2c1
- T/C (dose: 100.0 mg/kg/injection, schedule: Q04DX003 (ip), vehicle: saline with Tween-80): 126 % of control
- survivor count [1]: 3 of 6 on day 11
- survivor count [2]: 0 of 6 on day 11

Compound: ClCCCN1CCCCC1CCl (centres undefined)
- survivor count (dose: 50.0 mg/kg/injection, schedule: Q04DX003 (sc), vehicle: saline): 0 of 6 on day 11

Compound: O=C1c2cccc(NCCCNCCO)c2C(=O)c2cccc(NCCCNCCO)c21
- survivor count (dose: 75.0 mg/kg/injection, schedule: Q04DX003 (ip), vehicle: acid diluted with saline): 1 of 6 on day 11
- survivor count (dose: 150.0 mg/kg/injection, schedule: Q04DX003 (ip), vehicle: acid diluted with saline): 0 of 6 on day 11

Compound: COc1cc(C2CC(C)(O)Oc3cc4c(cc32)OCO4)cc(OC)c1OC (centres undefined)
- survivor count [3]: 2 of 6 on day 11
- survivor count [1]: 2 of 6 on day 11
- survivor count [2]: 1 of 6 on day 11

Compound: N#Cc1c(-c2ccc(F)cc2)c(-c2ccc(F)cc2)nn(CCO)c1=O
- T/C (dose: 50.0 mg/kg/injection, schedule: Q04DX003 (ip), vehicle: distilled water + Tween-80): 145 % of control
- survivor count (dose: 800.0 mg/kg/injection, schedule: Q04DX003 (ip), vehicle: distilled water + Tween-80): 2 of 6 on day 11

Compound: COc1cc([C@@H]2c3cc4c(cc3[C@@H](OC3OC5CO[C@@H](c6cccs6)OC5C(O)C3O)[C@H]3COC(=O)[C@H]23)OCO4)cc(OC)c1O (some centres undefined)
- survivor count (dose: 8.75 mg/kg/injection, schedule: Q01DX010 (ip), vehicle: saline): 0 of 6 on day 11
- survivor count (dose: 17.5 mg/kg/injection, schedule: Q01DX010 (ip), vehicle: saline): 0 of 6 on day 11
- survivor count (dose: 33.0 mg/kg/injection, schedule: Q01DX010 (ip), vehicle: saline): 0 of 6 on day 11
- survivor count (dose: 66.0 mg/kg/injection, schedule: Q01DX010 (ip), vehicle: saline): 0 of 6 on day 11
- survivor count (dose: 132.0 mg/kg/injection, schedule: Q01DX010 (ip), vehicle: saline): 0 of 6 on day 11
- survivor count (dose: 264.0 mg/kg/injection, schedule: Q01DX010 (ip), vehicle: saline): 0 of 6 on day 11

Compound: O=C(Nc1ccccc1)c1c(O)[nH]c(=S)[nH]c1=O
- survivor count (dose: 150.0 mg/kg/injection, schedule: Q04DX003 (ip), vehicle: saline with Tween-80): 2 of 5 on day 11
- survivor count [3]: 3 of 6 on day 11
- survivor count (dose: 300.0 mg/kg/injection, schedule: Q04DX003 (ip), vehicle: saline with Tween-80): 0 of 6 on day 11
- survivor count [1]: 0 of 6 on day 11
- survivor count (dose: 600.0 mg/kg/injection, schedule: Q04DX003 (ip), vehicle: saline with Tween-80): 0 of 5 on day 11

Compound: COc1ccc(S(=O)(=O)N/N=C/C(=O)O)cc1
- survivor count (dose: 200.0 mg/kg/injection, schedule: Q01DX010 (sc), vehicle: saline with Tween-80): 2 of 6 on day 11

Compound: CN(C)c1nc(N(C)C)[n+]([O-])c(N(C)C)n1
- T/C (dose: 50.0 mg/kg/injection, schedule: Q01DX010 (ip), vehicle: water): 133 % of control
- T/C (dose: 100.0 mg/kg/injection, schedule: Q01DX010 (ip), vehicle: water): 146 % of control

From PubChem BioAssay AID298 (DTP/NCI, 2004)
